Test results from PMC3762332.

Amino acid sequences for entries named in this document (tags omitted). A change or cut given only in a name is not applied to a line headed by its entry.
UniProt P43694: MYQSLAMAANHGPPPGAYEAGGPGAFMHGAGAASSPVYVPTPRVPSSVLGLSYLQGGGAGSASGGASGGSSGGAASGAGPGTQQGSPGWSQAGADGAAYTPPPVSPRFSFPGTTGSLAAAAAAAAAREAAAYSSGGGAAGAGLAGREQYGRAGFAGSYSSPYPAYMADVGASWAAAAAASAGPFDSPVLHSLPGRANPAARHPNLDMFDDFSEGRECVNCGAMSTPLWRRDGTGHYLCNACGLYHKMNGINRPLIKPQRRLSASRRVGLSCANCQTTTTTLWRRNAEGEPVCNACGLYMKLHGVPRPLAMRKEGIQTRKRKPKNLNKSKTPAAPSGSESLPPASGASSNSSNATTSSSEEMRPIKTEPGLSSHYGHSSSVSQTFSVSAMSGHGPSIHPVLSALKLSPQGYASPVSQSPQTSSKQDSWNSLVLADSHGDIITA
UniProt Q9Y2L8: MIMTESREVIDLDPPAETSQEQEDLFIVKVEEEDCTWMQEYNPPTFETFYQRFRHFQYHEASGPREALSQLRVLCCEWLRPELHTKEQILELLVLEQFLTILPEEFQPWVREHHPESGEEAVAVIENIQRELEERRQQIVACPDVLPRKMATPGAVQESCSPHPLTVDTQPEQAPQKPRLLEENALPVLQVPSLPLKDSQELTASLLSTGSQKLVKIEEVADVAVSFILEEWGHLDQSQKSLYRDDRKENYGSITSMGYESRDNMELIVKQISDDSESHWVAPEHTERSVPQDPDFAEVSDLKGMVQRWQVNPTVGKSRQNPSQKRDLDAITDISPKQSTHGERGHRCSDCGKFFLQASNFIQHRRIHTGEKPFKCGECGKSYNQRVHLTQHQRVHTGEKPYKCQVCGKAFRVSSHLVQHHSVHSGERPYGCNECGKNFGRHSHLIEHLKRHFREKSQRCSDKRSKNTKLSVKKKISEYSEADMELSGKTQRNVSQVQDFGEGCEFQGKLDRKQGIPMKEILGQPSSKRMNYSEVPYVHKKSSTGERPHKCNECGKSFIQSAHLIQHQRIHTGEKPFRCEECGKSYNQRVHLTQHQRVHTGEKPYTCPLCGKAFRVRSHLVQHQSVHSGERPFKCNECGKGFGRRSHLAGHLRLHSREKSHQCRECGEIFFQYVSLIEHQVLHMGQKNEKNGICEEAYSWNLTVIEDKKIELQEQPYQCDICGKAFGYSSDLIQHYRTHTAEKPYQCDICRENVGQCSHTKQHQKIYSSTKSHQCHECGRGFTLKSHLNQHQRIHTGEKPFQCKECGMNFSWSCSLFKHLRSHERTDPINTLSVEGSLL
UniProt O43474: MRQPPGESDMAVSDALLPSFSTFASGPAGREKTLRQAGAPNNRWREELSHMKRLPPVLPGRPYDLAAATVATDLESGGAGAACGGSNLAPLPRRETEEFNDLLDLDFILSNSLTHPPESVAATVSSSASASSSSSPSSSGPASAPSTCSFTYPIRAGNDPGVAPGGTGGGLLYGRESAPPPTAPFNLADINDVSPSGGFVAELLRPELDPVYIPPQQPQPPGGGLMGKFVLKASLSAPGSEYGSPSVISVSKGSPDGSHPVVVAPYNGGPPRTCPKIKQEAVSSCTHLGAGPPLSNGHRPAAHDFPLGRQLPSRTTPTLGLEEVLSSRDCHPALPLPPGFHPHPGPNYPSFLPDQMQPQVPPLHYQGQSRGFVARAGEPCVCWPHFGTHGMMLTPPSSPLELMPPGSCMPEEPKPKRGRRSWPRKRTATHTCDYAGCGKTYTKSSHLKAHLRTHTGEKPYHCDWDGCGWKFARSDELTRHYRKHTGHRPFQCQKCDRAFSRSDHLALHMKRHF
UniProt Q15583: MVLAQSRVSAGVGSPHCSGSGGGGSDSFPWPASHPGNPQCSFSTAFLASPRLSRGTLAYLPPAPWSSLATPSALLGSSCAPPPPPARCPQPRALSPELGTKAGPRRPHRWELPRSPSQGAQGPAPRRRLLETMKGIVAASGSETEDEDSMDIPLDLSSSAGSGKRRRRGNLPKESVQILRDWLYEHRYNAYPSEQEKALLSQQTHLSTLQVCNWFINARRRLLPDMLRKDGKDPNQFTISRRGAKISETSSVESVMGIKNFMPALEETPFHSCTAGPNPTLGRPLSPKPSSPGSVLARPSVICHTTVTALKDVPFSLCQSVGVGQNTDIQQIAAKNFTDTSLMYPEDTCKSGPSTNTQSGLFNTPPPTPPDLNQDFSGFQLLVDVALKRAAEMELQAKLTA
UniProt Q8TBJ5: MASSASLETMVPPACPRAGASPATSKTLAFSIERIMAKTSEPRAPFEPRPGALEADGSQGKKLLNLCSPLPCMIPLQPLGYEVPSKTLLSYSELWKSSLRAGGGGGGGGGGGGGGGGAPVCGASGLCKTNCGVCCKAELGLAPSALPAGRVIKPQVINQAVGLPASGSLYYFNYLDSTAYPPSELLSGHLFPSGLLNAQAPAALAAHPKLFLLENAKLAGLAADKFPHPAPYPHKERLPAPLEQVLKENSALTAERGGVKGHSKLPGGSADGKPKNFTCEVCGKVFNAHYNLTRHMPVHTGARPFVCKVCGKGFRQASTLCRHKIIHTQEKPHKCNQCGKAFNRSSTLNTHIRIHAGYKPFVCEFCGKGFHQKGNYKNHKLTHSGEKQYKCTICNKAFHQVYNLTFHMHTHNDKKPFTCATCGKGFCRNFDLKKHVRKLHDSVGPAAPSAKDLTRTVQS
UniProt Q9BWM5: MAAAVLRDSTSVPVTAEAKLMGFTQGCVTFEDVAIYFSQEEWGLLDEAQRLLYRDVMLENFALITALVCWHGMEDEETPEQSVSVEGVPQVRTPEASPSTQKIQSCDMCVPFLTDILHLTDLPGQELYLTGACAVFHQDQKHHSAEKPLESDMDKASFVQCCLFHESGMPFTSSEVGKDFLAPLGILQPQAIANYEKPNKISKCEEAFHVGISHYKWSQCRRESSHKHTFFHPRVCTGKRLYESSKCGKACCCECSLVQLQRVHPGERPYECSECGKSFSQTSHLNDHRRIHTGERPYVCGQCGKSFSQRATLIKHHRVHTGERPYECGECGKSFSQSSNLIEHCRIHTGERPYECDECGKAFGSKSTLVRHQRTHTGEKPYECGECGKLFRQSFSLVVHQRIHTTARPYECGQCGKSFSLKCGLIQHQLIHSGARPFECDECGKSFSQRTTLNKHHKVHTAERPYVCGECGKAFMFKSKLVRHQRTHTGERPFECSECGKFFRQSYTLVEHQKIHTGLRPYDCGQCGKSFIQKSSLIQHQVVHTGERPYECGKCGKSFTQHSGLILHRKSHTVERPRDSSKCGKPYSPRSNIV
UniProt P20719: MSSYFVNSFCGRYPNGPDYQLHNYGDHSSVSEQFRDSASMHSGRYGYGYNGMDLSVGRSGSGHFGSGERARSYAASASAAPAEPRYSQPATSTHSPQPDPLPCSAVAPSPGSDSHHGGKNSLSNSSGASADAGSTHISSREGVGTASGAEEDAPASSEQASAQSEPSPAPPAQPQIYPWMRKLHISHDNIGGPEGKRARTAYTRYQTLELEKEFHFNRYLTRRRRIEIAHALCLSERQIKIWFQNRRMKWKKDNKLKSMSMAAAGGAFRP
UniProt Q8IW36: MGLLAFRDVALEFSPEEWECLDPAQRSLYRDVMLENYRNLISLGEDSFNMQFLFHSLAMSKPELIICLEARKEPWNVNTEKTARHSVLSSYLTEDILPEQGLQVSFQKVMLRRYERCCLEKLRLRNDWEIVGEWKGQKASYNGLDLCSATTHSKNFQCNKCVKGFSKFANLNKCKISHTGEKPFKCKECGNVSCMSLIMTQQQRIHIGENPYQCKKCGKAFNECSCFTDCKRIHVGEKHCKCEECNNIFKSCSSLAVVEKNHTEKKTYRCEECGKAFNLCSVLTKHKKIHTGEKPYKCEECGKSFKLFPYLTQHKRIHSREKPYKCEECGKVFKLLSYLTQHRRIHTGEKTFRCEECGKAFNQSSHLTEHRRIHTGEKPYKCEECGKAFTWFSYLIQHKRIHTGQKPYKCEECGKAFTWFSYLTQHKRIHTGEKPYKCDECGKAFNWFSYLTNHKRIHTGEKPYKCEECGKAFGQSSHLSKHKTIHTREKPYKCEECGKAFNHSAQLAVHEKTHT
UniProt Q8NC26: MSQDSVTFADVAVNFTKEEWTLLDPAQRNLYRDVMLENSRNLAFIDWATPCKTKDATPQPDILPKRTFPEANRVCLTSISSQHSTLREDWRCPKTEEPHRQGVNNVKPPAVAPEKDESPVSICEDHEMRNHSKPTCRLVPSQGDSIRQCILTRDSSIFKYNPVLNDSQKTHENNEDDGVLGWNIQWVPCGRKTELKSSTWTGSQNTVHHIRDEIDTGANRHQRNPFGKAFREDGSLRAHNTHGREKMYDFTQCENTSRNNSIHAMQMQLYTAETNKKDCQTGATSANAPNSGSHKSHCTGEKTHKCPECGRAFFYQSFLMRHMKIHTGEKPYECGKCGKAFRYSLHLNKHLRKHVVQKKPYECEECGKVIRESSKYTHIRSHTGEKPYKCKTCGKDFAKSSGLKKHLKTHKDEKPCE
UniProt O00716: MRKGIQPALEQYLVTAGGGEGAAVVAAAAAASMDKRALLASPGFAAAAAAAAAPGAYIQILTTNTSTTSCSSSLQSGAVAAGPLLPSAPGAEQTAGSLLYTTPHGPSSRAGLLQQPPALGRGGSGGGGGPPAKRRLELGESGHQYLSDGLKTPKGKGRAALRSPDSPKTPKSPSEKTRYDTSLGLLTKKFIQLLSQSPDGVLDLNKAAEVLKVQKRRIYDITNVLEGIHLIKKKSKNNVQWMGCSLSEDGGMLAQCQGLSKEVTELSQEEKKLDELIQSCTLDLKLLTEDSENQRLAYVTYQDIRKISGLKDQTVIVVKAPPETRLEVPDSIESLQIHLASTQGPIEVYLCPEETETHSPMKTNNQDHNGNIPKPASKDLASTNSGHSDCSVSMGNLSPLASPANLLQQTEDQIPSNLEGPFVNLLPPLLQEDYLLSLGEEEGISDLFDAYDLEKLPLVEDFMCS
UniProt P05549: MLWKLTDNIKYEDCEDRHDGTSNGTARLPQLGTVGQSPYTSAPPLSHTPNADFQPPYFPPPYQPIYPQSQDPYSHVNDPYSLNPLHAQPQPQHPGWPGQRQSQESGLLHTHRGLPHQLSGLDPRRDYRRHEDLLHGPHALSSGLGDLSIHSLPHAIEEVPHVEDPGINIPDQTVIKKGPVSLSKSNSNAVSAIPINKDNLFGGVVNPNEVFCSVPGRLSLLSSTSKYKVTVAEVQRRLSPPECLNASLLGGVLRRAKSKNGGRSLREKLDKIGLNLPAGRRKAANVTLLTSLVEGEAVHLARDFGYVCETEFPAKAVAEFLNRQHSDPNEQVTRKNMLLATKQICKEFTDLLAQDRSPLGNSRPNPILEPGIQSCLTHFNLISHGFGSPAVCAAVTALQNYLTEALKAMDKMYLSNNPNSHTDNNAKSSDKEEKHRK
UniProt P08651, whole entry: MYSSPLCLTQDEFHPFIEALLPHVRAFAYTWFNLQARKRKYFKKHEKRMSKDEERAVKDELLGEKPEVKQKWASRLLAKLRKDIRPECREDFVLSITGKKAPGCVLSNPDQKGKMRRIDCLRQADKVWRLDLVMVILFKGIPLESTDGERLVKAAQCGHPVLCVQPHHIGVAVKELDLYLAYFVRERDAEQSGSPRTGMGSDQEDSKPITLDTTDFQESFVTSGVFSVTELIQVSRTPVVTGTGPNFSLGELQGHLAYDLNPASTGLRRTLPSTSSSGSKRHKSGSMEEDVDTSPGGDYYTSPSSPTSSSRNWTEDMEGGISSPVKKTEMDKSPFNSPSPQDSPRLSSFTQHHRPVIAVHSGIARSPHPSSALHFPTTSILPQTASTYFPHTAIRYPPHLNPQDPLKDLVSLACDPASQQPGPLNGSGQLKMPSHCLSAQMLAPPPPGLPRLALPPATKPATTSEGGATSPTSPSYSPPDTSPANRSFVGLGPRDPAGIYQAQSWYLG

Tests used:
Assay in all cases: protein microarray
Settings in all cases: 10-fold cold unmethylated competitor; 5mC at CpG (SssI, both strands); recombinant protein; protein details: GST (N-terminal); label: Cy5
GATA4 (Homo sapiens) = GATA4 (Homo sapiens) (UniProt P43694)
ZKSCAN5 (Homo sapiens) = ZKSCAN5 (Homo sapiens) (UniProt Q9Y2L8)
KLF4 (Homo sapiens) = KLF4 (Homo sapiens) (UniProt O43474)
TGIF1 (Homo sapiens) = TGIF1 (Homo sapiens) (UniProt Q15583)
FEZF2 (Homo sapiens) = FEZF2 (Homo sapiens) (UniProt Q8TBJ5)
ZNF416 (Homo sapiens) = ZNF416 (Homo sapiens) (UniProt Q9BWM5)
SCAPER (Homo sapiens) = target: T1, SCAPER (Homo sapiens) (UniProt Q9BY12)
T1 sequence (looked up, limits assumed): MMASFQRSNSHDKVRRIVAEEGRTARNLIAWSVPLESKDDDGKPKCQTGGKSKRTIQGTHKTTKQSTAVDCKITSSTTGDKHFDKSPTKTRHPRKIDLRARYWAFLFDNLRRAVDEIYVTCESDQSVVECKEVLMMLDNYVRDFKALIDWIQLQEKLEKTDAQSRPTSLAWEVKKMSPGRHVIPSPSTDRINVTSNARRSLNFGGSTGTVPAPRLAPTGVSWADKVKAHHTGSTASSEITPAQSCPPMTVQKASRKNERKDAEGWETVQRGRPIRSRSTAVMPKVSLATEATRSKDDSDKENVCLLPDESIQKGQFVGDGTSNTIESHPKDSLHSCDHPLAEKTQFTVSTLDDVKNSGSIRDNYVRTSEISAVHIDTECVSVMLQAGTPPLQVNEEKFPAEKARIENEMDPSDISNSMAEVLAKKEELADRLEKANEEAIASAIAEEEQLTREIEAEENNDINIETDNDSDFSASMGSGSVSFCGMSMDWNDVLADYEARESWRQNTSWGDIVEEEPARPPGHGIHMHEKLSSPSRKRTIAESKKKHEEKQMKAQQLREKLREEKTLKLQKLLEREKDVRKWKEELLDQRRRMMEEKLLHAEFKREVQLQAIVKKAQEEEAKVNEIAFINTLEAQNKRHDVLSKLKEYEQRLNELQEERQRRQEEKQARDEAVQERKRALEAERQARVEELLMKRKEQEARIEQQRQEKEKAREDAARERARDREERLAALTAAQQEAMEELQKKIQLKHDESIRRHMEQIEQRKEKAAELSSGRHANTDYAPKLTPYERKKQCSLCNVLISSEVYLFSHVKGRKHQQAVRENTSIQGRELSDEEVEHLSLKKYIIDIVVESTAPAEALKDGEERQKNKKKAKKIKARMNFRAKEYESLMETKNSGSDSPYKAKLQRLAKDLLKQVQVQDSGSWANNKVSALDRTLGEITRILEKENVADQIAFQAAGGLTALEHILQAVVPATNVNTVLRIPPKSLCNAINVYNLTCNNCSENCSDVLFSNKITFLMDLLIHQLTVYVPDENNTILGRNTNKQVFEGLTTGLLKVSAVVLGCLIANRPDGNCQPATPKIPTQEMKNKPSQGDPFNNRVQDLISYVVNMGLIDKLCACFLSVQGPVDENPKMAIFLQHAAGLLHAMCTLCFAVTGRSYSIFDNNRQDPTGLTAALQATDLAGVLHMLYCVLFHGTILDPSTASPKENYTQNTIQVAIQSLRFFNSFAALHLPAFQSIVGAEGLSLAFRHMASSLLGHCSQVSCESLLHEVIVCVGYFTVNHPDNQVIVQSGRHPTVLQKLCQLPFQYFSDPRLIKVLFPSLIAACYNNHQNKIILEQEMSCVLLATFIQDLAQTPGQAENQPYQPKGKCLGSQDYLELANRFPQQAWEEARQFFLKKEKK

HOXA5 (Homo sapiens) = HOXA5 (Homo sapiens) (UniProt P20719)
CALR (Homo sapiens) = target: T2, CALR (Homo sapiens) (UniProt P27797)
T2 sequence (looked up, limits assumed): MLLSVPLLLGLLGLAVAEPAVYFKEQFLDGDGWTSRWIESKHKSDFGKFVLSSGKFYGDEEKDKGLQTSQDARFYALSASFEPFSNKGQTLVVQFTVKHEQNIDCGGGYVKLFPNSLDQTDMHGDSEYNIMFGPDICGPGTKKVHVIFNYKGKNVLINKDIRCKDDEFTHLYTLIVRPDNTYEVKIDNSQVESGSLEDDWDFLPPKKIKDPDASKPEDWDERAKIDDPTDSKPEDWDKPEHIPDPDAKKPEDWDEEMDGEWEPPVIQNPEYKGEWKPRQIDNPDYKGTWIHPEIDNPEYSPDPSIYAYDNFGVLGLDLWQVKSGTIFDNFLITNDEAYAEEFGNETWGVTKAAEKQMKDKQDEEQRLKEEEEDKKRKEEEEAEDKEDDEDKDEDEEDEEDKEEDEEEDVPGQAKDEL

ZNF695 (Homo sapiens) = ZNF695 (Homo sapiens) (UniProt Q8IW36)
ZNF114 (Homo sapiens) = ZNF114 (Homo sapiens) (UniProt Q8NC26)
SUB1 (Homo sapiens) = SUB1 (Homo sapiens) (UniProt P53999)
E2F3 (Homo sapiens) = E2F3 (Homo sapiens) (UniProt O00716)
ASH2L (Homo sapiens) = ASH2L (Homo sapiens) (UniProt Q9UBL3)
TFAP2A (Homo sapiens) = TFAP2A (Homo sapiens) (UniProt P05549)
NFIC (Homo sapiens) = NFIC (Homo sapiens) (UniProt P08651)

Measured: binding result

ACTACATTTCCCGCCCACTACATTTCCCGCCCTATAGTGAGTGCTATTA (double strand) [M197]
not listed: ASH2L (Homo sapiens) | TFAP2A (Homo sapiens) | NFIC (Homo sapiens)
binds: all other assays above

TGGATTGTCGCCAGAAATGGATTGTCGCCAGCCCTATAGTGAGTGCTATTA (double strand) [M209]
not listed: KLF4 (Homo sapiens) | TGIF1 (Homo sapiens) | SUB1 (Homo sapiens)
binds: all other assays above

The exact form of at least one protein or probe is not confirmed. For some assays here: Tags and fusion partners may be left off the protein sequences shown.
